Test results: the supplement of paper PMC10849652
The other results are listed elsewhere or left out.

Chains of the proteins cited; added tags and fusions are not shown. Lines headed by an entry give the natural chain unless they say otherwise; changes in a name come on top.
UniProt P56385: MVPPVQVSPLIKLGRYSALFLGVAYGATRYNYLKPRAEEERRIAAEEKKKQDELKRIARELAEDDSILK
UniProt P54709, whole entry, looked up: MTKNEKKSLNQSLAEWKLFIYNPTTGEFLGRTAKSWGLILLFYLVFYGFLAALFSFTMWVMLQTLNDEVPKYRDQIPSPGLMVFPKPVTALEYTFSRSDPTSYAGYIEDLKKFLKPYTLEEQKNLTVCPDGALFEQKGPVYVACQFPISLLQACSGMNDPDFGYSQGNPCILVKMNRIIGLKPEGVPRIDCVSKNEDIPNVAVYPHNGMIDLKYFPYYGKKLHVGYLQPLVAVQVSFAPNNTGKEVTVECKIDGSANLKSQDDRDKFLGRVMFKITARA
UniProt Q06055: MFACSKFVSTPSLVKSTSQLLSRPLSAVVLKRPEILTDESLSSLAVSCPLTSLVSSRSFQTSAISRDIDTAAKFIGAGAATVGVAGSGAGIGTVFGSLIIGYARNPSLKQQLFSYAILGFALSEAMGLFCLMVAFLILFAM
UniProt O75947: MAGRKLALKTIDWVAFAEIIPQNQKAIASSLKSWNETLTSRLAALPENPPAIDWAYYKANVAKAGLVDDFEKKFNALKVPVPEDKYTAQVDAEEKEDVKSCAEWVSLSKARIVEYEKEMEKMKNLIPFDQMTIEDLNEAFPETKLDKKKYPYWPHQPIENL
UniProt Q8NHH9: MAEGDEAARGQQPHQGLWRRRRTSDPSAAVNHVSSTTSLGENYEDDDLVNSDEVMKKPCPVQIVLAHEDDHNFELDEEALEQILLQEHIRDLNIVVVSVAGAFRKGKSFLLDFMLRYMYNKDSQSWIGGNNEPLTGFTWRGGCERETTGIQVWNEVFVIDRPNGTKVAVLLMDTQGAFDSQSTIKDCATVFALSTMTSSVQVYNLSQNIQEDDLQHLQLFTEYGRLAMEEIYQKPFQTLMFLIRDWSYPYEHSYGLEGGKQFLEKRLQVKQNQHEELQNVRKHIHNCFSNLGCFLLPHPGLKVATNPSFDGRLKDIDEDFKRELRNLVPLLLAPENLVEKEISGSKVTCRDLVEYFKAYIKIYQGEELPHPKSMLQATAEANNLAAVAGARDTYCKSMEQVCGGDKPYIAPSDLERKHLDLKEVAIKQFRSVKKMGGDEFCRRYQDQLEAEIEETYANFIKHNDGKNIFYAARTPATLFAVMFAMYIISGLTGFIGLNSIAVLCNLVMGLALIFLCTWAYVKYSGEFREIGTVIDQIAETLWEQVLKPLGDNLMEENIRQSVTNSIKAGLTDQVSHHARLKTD
UniProt P31939: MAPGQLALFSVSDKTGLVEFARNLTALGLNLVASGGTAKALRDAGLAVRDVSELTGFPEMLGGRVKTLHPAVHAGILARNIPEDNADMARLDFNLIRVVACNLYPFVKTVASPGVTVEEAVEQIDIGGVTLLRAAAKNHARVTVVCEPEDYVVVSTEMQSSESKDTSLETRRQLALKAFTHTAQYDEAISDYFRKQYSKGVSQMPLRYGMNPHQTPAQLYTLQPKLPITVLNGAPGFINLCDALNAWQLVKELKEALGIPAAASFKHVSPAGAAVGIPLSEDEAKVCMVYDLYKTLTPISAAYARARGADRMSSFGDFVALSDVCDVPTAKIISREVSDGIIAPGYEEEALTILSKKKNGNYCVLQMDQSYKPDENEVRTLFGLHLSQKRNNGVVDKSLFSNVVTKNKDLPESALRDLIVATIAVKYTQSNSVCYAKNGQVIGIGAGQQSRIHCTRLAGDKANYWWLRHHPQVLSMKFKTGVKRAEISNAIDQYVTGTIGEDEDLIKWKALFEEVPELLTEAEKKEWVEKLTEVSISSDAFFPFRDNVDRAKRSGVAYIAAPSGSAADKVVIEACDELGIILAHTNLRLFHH
UniProt Q9Y487, whole entry, looked up: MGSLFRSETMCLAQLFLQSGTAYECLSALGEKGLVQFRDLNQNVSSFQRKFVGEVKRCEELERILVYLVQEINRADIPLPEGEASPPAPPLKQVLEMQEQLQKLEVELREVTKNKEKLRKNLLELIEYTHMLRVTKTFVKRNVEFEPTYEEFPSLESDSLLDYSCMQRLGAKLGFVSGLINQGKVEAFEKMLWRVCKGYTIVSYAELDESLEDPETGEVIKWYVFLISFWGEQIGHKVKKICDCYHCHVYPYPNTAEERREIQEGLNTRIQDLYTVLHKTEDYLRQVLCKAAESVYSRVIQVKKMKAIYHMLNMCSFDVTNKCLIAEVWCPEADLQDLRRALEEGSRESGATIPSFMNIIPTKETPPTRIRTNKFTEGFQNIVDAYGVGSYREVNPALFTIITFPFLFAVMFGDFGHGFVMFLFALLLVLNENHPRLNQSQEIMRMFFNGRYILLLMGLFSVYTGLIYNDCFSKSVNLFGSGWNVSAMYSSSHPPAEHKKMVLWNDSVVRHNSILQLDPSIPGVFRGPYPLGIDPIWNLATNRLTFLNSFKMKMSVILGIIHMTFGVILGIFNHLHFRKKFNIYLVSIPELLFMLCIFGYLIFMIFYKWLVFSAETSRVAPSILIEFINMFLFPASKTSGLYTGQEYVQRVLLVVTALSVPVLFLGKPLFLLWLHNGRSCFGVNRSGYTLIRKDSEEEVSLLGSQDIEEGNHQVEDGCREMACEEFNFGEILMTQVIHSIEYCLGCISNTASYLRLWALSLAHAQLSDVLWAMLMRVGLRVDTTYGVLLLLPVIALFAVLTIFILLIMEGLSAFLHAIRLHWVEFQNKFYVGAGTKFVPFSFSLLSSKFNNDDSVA
UniProt P61421, whole entry, looked up: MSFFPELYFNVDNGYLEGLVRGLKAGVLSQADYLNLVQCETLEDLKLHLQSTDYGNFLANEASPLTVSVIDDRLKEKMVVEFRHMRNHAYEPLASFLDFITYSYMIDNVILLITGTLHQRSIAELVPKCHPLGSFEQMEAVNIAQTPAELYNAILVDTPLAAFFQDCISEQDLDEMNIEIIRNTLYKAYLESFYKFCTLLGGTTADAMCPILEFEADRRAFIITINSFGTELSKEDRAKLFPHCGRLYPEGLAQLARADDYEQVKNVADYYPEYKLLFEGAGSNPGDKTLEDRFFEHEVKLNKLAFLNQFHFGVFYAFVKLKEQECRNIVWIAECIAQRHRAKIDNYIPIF
UniProt Q8IZT6: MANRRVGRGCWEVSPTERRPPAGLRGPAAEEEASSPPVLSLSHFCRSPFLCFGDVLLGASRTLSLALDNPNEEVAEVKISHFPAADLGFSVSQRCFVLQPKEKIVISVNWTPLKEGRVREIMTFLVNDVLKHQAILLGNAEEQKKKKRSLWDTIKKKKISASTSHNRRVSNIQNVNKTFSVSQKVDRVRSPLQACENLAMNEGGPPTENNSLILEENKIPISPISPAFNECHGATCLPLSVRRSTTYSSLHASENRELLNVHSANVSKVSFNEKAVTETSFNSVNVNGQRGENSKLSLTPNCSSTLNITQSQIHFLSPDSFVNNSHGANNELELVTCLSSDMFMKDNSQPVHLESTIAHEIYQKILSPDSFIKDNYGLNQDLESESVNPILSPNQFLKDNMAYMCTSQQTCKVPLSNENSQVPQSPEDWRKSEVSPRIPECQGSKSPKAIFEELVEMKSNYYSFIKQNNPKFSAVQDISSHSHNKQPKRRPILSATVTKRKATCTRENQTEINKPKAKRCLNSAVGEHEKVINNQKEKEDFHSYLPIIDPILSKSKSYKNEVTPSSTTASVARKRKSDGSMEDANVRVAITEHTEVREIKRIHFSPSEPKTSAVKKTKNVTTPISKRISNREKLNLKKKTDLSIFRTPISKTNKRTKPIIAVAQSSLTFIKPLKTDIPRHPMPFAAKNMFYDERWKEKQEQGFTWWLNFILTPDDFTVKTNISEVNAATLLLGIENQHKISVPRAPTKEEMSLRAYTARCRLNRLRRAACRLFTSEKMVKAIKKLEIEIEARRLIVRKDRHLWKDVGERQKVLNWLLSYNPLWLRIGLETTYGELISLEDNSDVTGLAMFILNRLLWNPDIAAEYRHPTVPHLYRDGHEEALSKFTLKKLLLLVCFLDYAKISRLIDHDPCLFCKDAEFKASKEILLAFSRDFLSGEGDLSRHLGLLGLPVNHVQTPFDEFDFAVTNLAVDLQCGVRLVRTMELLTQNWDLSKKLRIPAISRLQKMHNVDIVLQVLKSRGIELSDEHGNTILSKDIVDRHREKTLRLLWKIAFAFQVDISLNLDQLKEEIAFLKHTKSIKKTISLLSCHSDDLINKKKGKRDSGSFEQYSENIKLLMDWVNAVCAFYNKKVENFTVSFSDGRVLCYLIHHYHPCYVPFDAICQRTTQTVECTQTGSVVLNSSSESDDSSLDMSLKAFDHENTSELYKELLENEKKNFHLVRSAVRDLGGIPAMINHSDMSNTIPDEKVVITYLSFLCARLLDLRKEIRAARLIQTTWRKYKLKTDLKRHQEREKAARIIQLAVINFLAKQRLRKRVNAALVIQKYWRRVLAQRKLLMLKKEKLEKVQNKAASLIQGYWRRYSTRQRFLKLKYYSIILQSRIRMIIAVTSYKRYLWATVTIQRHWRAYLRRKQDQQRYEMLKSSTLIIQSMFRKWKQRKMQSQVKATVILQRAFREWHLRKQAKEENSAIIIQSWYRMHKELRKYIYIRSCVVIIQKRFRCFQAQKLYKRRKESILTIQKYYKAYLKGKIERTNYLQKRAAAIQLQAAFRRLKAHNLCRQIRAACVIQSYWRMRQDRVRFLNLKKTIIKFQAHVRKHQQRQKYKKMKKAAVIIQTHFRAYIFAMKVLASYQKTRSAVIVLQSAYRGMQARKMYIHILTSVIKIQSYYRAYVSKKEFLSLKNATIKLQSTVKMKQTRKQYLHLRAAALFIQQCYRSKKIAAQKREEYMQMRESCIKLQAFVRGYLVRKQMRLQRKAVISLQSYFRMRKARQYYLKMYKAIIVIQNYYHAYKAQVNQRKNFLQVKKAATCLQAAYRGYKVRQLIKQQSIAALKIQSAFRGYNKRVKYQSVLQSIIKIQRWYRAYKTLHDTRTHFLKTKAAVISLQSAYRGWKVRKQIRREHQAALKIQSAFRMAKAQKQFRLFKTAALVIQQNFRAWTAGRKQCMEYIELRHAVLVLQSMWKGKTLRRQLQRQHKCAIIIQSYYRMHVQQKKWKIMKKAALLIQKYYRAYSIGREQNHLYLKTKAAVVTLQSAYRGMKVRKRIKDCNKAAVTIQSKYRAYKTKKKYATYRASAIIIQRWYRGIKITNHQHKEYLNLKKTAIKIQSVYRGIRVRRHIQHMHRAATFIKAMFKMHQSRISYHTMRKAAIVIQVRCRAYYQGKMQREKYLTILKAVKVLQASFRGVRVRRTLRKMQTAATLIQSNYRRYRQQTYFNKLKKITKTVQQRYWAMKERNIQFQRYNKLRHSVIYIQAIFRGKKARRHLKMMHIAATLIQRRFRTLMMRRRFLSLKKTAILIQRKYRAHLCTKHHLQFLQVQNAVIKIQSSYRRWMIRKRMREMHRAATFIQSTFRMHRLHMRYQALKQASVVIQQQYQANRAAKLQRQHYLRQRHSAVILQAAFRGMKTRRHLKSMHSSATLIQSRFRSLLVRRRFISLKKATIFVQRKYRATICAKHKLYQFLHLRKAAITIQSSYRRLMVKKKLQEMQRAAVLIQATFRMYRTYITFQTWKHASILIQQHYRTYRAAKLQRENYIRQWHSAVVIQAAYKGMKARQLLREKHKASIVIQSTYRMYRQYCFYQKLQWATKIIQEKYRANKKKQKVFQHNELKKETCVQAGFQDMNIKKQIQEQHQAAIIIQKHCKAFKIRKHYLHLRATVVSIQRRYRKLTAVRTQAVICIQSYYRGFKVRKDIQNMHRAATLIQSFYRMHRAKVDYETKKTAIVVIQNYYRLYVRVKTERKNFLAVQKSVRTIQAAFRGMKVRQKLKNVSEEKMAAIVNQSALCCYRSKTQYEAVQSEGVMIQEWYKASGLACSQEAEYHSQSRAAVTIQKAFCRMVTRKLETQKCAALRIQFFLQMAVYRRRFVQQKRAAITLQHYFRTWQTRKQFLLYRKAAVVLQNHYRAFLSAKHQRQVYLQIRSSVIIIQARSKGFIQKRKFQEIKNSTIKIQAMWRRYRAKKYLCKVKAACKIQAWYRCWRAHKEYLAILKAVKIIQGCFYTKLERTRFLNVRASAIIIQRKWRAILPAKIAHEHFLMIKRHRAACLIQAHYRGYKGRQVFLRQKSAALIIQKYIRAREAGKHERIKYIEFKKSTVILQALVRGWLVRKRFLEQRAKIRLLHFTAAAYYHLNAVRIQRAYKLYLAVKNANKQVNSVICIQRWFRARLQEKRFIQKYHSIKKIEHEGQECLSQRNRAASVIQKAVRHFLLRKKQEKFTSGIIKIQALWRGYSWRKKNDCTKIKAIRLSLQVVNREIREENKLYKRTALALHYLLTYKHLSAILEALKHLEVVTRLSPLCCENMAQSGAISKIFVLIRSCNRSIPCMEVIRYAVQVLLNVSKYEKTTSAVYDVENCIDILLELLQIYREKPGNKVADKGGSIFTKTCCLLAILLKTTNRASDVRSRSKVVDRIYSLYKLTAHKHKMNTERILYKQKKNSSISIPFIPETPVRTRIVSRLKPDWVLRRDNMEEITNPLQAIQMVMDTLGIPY

Legend:
Experiment in all cases: log2 fold change, soluble protein after heating vs DMSO (PISA); higher = thermal stabilisation; K562 lysate, 10 uM; active = over 0.2 and 3.5 SD of the protein, either way, in both replicates (recomputed)
[1] = compound: NCC(=O)Nc1ccc(-n2nc(C(F)(F)F)cc2-c2ccc3c(ccc4ccccc43)c2)cc1
In short: (§1)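 Pellets of K562 cells were dounce-homogenised in PBS pH 7.4 with 1 mM MgCl2, and the crude extract was held at 1 mg/mL protein for a 30 min treatment with 10 μM compound. Aliquots were heated for 3 min over 48°C-58°C and pooled before NP-40 was added to 0.5% at 4°C. The supernatant from 21,000xg for 90 min was quantified by TMTpro 16plex LC-MS/MS with channel sums equalised. Values are reported from duplicates as log-two fold change in thermal stability relative to solvent controls.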

vorinostat = compound: O=C(CCCCCCC(=O)Nc1ccccc1)NO [vorinostat]
In short: as §1

silmitasertib = compound: O=C(O)c1ccc2c(c1)nc(Nc1cccc(Cl)c1)c1ccncc12 [silmitasertib]
In short: as §1

[2] = compound: O=C1NC(=O)C(c2cnc3ccccn23)=C1c1cn2c3c(cc(F)cc13)CN(C(=O)N1CCCCC1)CC2
In short: as §1

entospletinib = compound: c1cn2cc(-c3ccc4cn[nH]c4c3)nc(Nc3ccc(N4CCOCC4)cc3)c2n1 [entospletinib]
In short: as §1

Target	log2 fold change [1]	log2 fold change (vorinostat)	log2 fold change (silmitasertib)	log2 fold change [2]	log2 fold change (entospletinib)
B4GALNT1 (UniProt Q00973)	inactive: 0.007	inactive: -0.055	inactive: -0.003	inactive: 0.027	inactive: -0.022
ASPH (UniProt Q12797)	inactive: 0	inactive: 0.131	inactive: -0.008	inactive: 0.029	inactive: -0.016
ATP5ME (UniProt P56385)	inactive: -0.01	inactive: 0.128	inactive: 0.035	inactive: -0.031	inactive: -0.063
ATP6V0A1 isoform 3 (UniProt Q93050)	inactive: 0.001	inactive: 0.12	inactive: -0.014	inactive: 0.041	inactive: -0.026
AURKB isoform 5 (UniProt Q96GD4)	inactive: -0.035	inactive: -0.061	inactive: -0.082	inactive: 0.03	inactive: -0.218
ATXN2 (UniProt F8WB05)	inactive: 0.013	inactive: 0.011	inactive: 0.271	inactive: 0.115	inactive: -0.016
AVL9 (UniProt Q8NBF6)	inactive: 0.022	inactive: 0.082	inactive: -0.014	inactive: -0.028	inactive: -0.001
ATXN2L isoform 3 (UniProt Q8WWM7)	inactive: 0.013	inactive: -0.152	inactive: -0.027	inactive: -0.021	inactive: -0.003
ASF1B (UniProt Q9NVP2)	inactive: -0.046	inactive: -0.03	inactive: 0.047	inactive: -0.011	inactive: 0.036
ATP6AP1 (UniProt Q15904)	inactive: -0.032	inactive: 0.11	inactive: -0.04	inactive: -0.023	inactive: 0.005
AUNIP isoform 2 (UniProt Q9H7T9)	inactive: 0.023	inactive: -0.219	inactive: -0.009	inactive: 0.014	inactive: 0.08
ATF7IP2 (UniProt Q5U623)	inactive: 0.066	inactive: 0.027	inactive: 0.002	inactive: -0.048	
ATG16L1 (UniProt Q676U5)	inactive: 0.023	inactive: 0.07	inactive: -0.007	inactive: -0.026	inactive: -0.033
ATP1B3 (UniProt P54709)	inactive: -0.003	inactive: 0.136	inactive: -0.028	inactive: -0.004	inactive: -0.023
ASMTL (UniProt O95671)	inactive: -0.013	inactive: -0.122	inactive: 0.002	inactive: -0.027	inactive: 0.009
ATG2A isoform 3 (UniProt Q2TAZ0)	inactive: 0.005	inactive: -0.045	inactive: 0.095	inactive: 0.058	inactive: -0.001
ATP5F1B (UniProt F8W0P7)	inactive: 0.177	inactive: 0.302	inactive: -0.079		
ATF3 (UniProt P18847)	inactive: 0.001	inactive: -0.041	inactive: 0.128	inactive: -0.025	inactive: -0.208
ATP5F1B (UniProt P06576)	inactive: 0.006	inactive: 0.124	inactive: -0.006	inactive: -0.003	inactive: -0.019
ATPAF1 (UniProt Q5TC12)	inactive: 0.086	inactive: 0.01	inactive: -0.02	inactive: -0.003	inactive: -0.03
ATP5MC2 isoform 2 (UniProt Q06055)	inactive: 0.015	inactive: 0.165	inactive: -0.011	inactive: 0.052	inactive: 0.009
ATXN7L2 (UniProt Q5T6C5)	inactive: -0.039				
ATP11B (UniProt Q9Y2G3)	inactive: 0.027	inactive: 0.092	inactive: -0.006	inactive: -0.01	inactive: 0.008
ATP5PD (UniProt O75947)	inactive: -0.01	inactive: 0.107	inactive: -0.013	inactive: 0.044	inactive: -0.012
ATP5PF isoform 2 (UniProt P18859)	inactive: -0.002	inactive: 0.206	inactive: -0.116	inactive: 0.053	inactive: -0.003
ATP1B2 (UniProt P14415)	inactive: -0.243	inactive: 0.283	inactive: 0		
ATP6V1H (UniProt Q9UI12)	inactive: 0.034	inactive: -0.131	inactive: 0.031	inactive: -0.018	inactive: 0.02

Retrieved one by one from above, 2 records:
Target	log2 fold change [1]	log2 fold change (vorinostat)	log2 fold change (silmitasertib)	log2 fold change [2]	log2 fold change (entospletinib)
ASF1B (UniProt Q9NVP2)	inactive: -0.046	inactive: -0.03	inactive: 0.047	inactive: -0.011	inactive: 0.036
ATP6V1H (UniProt Q9UI12)	inactive: 0.034	inactive: -0.131	inactive: 0.031	inactive: -0.018	inactive: 0.02

Carrying on:

Target	log2 fold change [1]	log2 fold change (vorinostat)	log2 fold change (silmitasertib)	log2 fold change [2]	log2 fold change (entospletinib)
ATP6V1B1 (UniProt P15313)	inactive: -0.005	inactive: 0.083	inactive: -0.013	inactive: -0.006	inactive: 0.014
AURKAIP1 (UniProt Q9NWT8)	inactive: 0.073	inactive: 0.08	inactive: -0.01	inactive: 0.071	inactive: -0.081
ATP2A3 isoform 2 (UniProt Q93084)	inactive: -0.037	inactive: -0.047	inactive: 0.054	inactive: -0.008	inactive: -0.017
ATP11A (UniProt P98196)	inactive: 0.168	active: -0.265	inactive: 0.106	inactive: 0.009	inactive: -0.054
ATP5F1C (UniProt P36542)	inactive: -0.004	inactive: 0.099	inactive: 0.023	inactive: -0.029	inactive: 0.004
ATAD3B (UniProt Q5T9A4)	inactive: -0.128	inactive: 0.132	inactive: 0.015	inactive: -0.057	inactive: 0.012
ATG13 isoform 2 (UniProt O75143)	inactive: 0.01	inactive: 0.051	inactive: -0.01	inactive: 0.024	inactive: -0.008
ATP5MF-PTCD1 (UniProt G3V325)	inactive: 0.002	inactive: 0.074	inactive: 0.047	inactive: -0.012	inactive: 0.029
ASRGL1 (UniProt Q7L266)	inactive: 0.037	inactive: 0.088	inactive: 0.011	inactive: 0.007	inactive: -0.042
B3GAT3 (UniProt O94766)	inactive: 0	inactive: 0.023	inactive: 0.047	inactive: 0	inactive: 0.056
ATPAF2 (UniProt Q8N5M1)	inactive: -0.016	inactive: 0.044	inactive: 0.009	inactive: -0.038	inactive: -0.058
ATG5 (UniProt Q9H1Y0)	inactive: 0.007	inactive: 0.005	inactive: 0.005	inactive: 0.005	inactive: 0.025
ATRX (UniProt P46100)	inactive: 0.066	inactive: -0.239	inactive: -0.05	inactive: -0.08	inactive: 0.01
ATN1 (UniProt P54259)	inactive: 0.042	inactive: 0.045	inactive: -0.034	inactive: 0.022	inactive: -0.014
ATP23 (UniProt Q9Y6H3)	inactive: -0.154	inactive: -0.008	inactive: -0.034	inactive: -0.047	inactive: -0.007
ASL (UniProt P04424)	inactive: 0.017	inactive: 0.065	inactive: -0.006	inactive: -0.012	inactive: 0.001
AUH (UniProt Q13825)	inactive: 0.1	inactive: -0.068	inactive: 0.017	inactive: -0.063	inactive: -0.11
ATL2 (UniProt Q8NHH9)	inactive: -0.014	inactive: 0.008	inactive: 0.003	inactive: -0.025	inactive: -0.03
ATIC (UniProt P31939)	inactive: 0	inactive: -0.033	inactive: 0.056	inactive: 0.01	inactive: -0.002
ATG4A (UniProt Q8WYN0)	inactive: -0.059	active: -0.543	inactive: 0.034	inactive: 0.001	inactive: 0.004
ATL3 (UniProt Q6DD88)	inactive: 0.018	inactive: -0.123	inactive: -0.027	inactive: -0.03	inactive: 0.016
AUP1 (UniProt Q9Y679)	inactive: -0.043	inactive: -0.16	inactive: 0.059	inactive: 0.006	inactive: 0.042
ATF7 isoform 6 (UniProt P17544)	inactive: 0.072	inactive: 0.144	inactive: 0.02	inactive: -0.064	inactive: -0.124
ATP6V0A2 (UniProt Q9Y487)	inactive: -0.033	inactive: 0.127	inactive: -0.016	inactive: -0.021	inactive: 0.012
ATP6V0D1 (UniProt P61421)	inactive: -0.167	inactive: 0.13	inactive: 0	inactive: 0.05	inactive: -0.036
ASPM (UniProt Q8IZT6)	inactive: 0.032	inactive: -0.025	inactive: 0.093	inactive: 0.023	inactive: 0.036
ATP5IF1 (UniProt Q9UII2)	inactive: 0.05	inactive: 0.146	inactive: -0.025	inactive: 0.019	inactive: 0.014

Just log2 fold change [2] (3 entries from above):
Target	log2 fold change [2]
ATP6V1B1 (UniProt P15313)	inactive: -0.006
AURKAIP1 (UniProt Q9NWT8)	inactive: 0.071
ATP5F1C (UniProt P36542)	inactive: -0.029
